Results published in article PMC5351981.

Protein sequences, listed by entry. Tags and fused reporters are not part of them. Lines headed by an entry give the natural chain unless they say otherwise; changes in a name come on top.
UniProt Q08605: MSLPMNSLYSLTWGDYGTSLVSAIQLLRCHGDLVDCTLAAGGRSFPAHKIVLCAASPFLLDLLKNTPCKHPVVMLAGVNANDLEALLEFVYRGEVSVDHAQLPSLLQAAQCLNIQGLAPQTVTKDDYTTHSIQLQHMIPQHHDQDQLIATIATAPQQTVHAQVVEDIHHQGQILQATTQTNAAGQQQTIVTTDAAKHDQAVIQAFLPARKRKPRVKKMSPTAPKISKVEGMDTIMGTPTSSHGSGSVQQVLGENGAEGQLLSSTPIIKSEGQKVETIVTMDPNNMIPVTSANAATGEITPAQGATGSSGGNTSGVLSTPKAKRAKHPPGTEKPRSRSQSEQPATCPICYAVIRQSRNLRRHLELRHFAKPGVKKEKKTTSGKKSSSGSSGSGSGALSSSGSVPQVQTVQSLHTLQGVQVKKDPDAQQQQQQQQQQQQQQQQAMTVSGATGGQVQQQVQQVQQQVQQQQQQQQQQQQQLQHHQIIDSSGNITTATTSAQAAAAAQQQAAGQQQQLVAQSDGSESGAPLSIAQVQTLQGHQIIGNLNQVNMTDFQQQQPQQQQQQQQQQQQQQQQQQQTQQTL

Molecular target: GAGA factor (GAF) (Drosophila melanogaster (endogenous in embryos)) (UniProt Q08605)
Experiment: affinity purification with mass spectrometry; GAF polyclonal antibody coupled to protein A Sepharose; 10 mg nuclear extract of 0-12 h embryos, HEMG-150, 2 h; washed with HEMG-500 plus 0.1% Nonidet P-40; eluted with 0.1 M glycine pH 2.5; triplicate; mock: protein A Sepharose with no antibody

| binding | Binder |
| --- | --- |
| binds | CG2199 (protein, UniProt Q8IRH5 1-733) MRNILLCENMTKVQKEVRCDHCGTSQGSKSVFSGQKVFLGRKITDVLETITHRSIPSSLPIKICFVCTSTFMSSAALIEKVRETVDRVQEQPAKKTKVAEIEEPSTQESDKKAVKVPKKNTTLRQRSKSIAAFPPSFVNGANTNTEIEIISASPKKLDKTPKKQISRLFEDNLNDSVKLTPAKEVSSTKKAFLNLFGNGGNDAIEVLTESEEEEDSDKGPITINTNNFQCPECEFHAKFPKPYKEHLQKEHGLQRPRIYPCTLCIKTFGVLKTLKNHLRDTHSRTFESEAKTKAKESKEKEAKSGAKNKIDAKAKETNAVSQRKKPKEKKSKEKKTEIKCNVETKVVDEIDDQVNNKKGTDSEDADQTQATKIASFKALNESLMKKRMLENVIDSEYTFAINGSSASTPRADSNNFQCEICDCELMTAKQMQEHMKTVHSIDKPKVFKCHVCEKSLATKQSLKTHMTLHADGAEAPNSSKRKILQDEDEDVDILGTTQIENTAEKVEGPKKSQQSPTKAAKFTNRKILQEEDEVVEIVDAFKTDNTAEDDEGPAEEKIIRSRNNIQHQVDGGMIAPRSPAKKTKKTSHVDLSVSTTNGNSPAKSEKRKKQDKSEDTLPSSDVDIVEEINYNVRPHKKARLESIGDSTADESTLSCDRCGKFVKSRQRLDSHMEKKHAAKLQCTLCKEVYQNQMDYVAHFSNCGSEGGLPCGVANCKKVFTEANFLSSHLRKRH |
| no binding | Pc (protein, UniProt P26017 1-390) MTGRGKGSKGKLGRDNATDDPVDLVYAAEKIIQKRVKKGVVEYRVKWKGWNQRYNTWEPEVNILDRRLIDIYEQTNKSSGTPSKRGIKKKEKEPDPEPESEEDEYTFTENDVDTHQATTSSATHDKESKKEKKHHHHHHHHHHIKSERNSGRRSESPLTHHHHHHHHESKRQRIDHSSSSNSSFTHNSFVPEPDSNSSSSEDQPLIGTKRKAEVLKESGKIGVTIKTSPDGPTIKPQPTQQVTPSQQQPFQDQQQAEKIASEAATQLKSEQQATPLATEAINTTPAESGAEEEEVANEEGNQQAPQVPSENNNIPKPCNNLAINQKQPLTPLSPRALPPRFWLPAKCNISNRVVITDVTVNLETVTIRECKTERGFFRERDMKGDSSPVA |
| binds | Bab2/BTB-II (protein, UniProt Q9W0K4 1-1067) MDMTKQIVDFEIKSELIGEIDQFEASDYTMAPPEEPKMVEESPQLGHLEDQNRKYSPEREVEPTLQDPSEVVDQMQKDTESVGEVKSPEKDVETELVKSKASPMNDQALTPPPRPLTSSEVVGLRDPEHTELRMCLEAKKSRSLPVSPQPQPNLKLAGSALFEFGQRSSPVETKIKTNPETKPPRRKIVPPSGEGQQFCLRWNNYQSNLTNVFDELLQSESFVDVTLSCEGHSIKAHKMVLSACSPYFQALFYDNPCQHPIIIMRDVSWSDLKALVEFMYKGEINVCQDQINPLLKVAETLKIRGLAEVSAGRGEGGASALPMSAFDDEDEEEELASATAILQQDGDADPDEEMKAKRPRLLPEGVLDLNQRQRKRSRDGSYATPSPSLQGGESEISERGSSGTPGQSQSQPLAMTTSTIVRNPFASPNPQTLEGRNSAMNAVANQRKSPAPTATGHSNGNSGAAMHSPPGGVAVQSALPPHMAAIVPPPPSAMHHHAQQLAAQHQLAHSHAMASALAAAAAGAGAAGAGGAGSGSGSGASAPTGGTGVAGSGAGAAVGSHHDDMEIKPEIAEMIREEERAKMIESGGHGGWMGAAAAATGAASVAADSYQYQLQSMWQKCWNTNQQNLVQQLRFRERGPLKSWRPEAMAEAIFSVLKEGLSLSQAARKFDIPYPTFVLYANRVHNMLGPSLDGGADPRPKARGRPQRILLGMWPEELIRSVIKAVVFRDYREIKEDMSAHQYANGQGHGTYIGGGTTTNGYHSAAAAKLAAQNAALAPPDAGSPLSSMTETLRRQILSQQQQHQQHHQQQAHHQQQPSHHQQQSPHAQSMNMYKSPAYLQRSEIEDQVSAAAAVAAAAAKHQQQQGERRGSENLPDLSALGLMGLPGLNVMPSRGSGGGSGGAAPNSAASYARELSRERERDRERERERELSRQYGSQSRGSSSGSGSAKSLTASQRPGAASPYSAAHYAKHQASAYNKRFLESLPAGIDLEAFANGLLQKSVNKSPRFEDFFPGPGQDMSELFANPDASAAAAAAAYAPPGAIRESPLMKIKLEQQHATELPHED |

Results are given in words; binding and its absence hold for the method and conditions named. Binding seen in cells or lysates may run through a third protein. These calls come from enrichment with a bait or labelling near it, and not all partners need be listed. No binding means not detected with the bait.
